# In patent US20250345296A1, “COMPOSITIONS AND METHODS FOR THE MODULATION OF MITOPHAGY FOR USE IN TREATMENT OF MITOCHONDRIAL DISEASE” (THE CHILDREN'S HOSPITAL OF PHILADELPHIA, priority 2022, published 2025):
# Entries after “also recorded” stand apart in the source; their conditions may differ. Where two headings read alike, the source gives them in different places. At least one structure is not confirmed: it was looked up by name or label, or the drawing left a doubt.
# Columns and labels:
# eat-3(R289Q) animals [1] = assay type: in vivo, C. elegans; conditions: for mitochondrial stress (hsp-6p::GFP): mitophagy modulating compound library screen at 25 μM
# Protocol: FIGS. 5A-5B: Screening assay assessing the effects of solid media drug exposure on mitochondrial stress in eat-3(R289Q) animals. […] Treatment with compounds occurred from embryo to L4+1 day adult stage in FIGS. 5A-5B.
# FIGS. 7A-7E: Screening mitophagy modulating compound library of 62 compounds from Medchemexpress assaying mitochondrial stress (hsp-6p::GFP) in eat-3(R289Q) animals.
# (§1) Mitochondrial stress was assessed using a genetic reporter strain with GFP expression driven by the hsp-6 promoter, which is activated by the mitochondrial unfolded protein response (UPR^mt), a form of mitochondrial stress. The fluorescence was measured on the BioSorter® Large Particle Flow Cytometer from Union Biometrica using FlowPilot™ software.
# (§2) High-throughput drug screening was performed by assessing mitochondrial stress with and without drug treatment using the CX5, a high-content screening (HCS) imaging platform from ThermoFisher. All screens shown in this application were performed in C. elegans wild-type or genetic mutant worm strains using thrashing and/or mitochondrial stress. Each hit will first be re-confirmed using the assay it was identified. […] This strain carries both wild-type and mutant mitochondrial genome (mtDNA). The mutant mtDNA carry a 3.1 kb deletion. Note currently there are no SLSMD models in zebrafish. […] Hits in the OPA1 fish will be tested in human patient OPA1 fibroblast cell lines. Hits in the uaDf5 worms will be directly tested in the SLSMD human patient fibroblast cell lines.
# [2] = system: fibroblast derived from a patient carrying a heterozygous OPA1 (R290Q/+) mutation; assay: ATP production in OPA1 (R290Q/+) patient fibroblasts; assay type: cell-based, human
# [3] = system: fibroblast derived from a patient carrying a OPA1 (1403T) mutation; assay: ATP production in OPA1 (1403T) patient fibroblasts; assay type: cell-based, human
# uaDf5 animals [4] = assay: Mitochondrial stress (hsp-6p::GFP) in uaDf5 animals with heteroplasmic SLSMD; assay type: in vivo, C. elegans
# Text: FIGS. 11A-11D: Mitochondrial stress screening assay assessing effects of therapeutic agents known to benefit mitochondrial respiratory chain complex I disease animal models in uaDf5 animals with a heteroplasmic SLSMD. […] EtOH refers to ethanol; NAC refers to N-Acetylcysteine; DCA refers to dichloroacetate; and LiCL refers to lithium chloride.
# FIGS. 12A-12D: Screening mitophagy modulating compound library of 62 compounds from Medchemexpress assaying mitochondrial stress (hsp-6p::GFP) in uaDf5 animals. […]
# as §1, §2
# As discussed above, the uaDf5;myo-2p::mcherry;hsp-6p::GFP worm (C. elegans) strain #2 with an average of 30% heteroplasmy can be used to advantage in mitochondrial unfolded protein response (UPR^mt) stress reporter assays. […] These included 25 mM Thiamine, 50 mM Thiamine, 0.2 mM MitoQ, 0.02 mM Lipoic Acid and 0.5 mM AICAR.
# uaDf5 animals [5] = assay: mtDNA deletion heteroplasmy level in uaDf5 animals (qPCR); assay type: in vivo, C. elegans; conditions: 50 μM, 24-hour treatment
# human osteosarcoma cells = conditions: Lin et al., 2020; cited from earlier work
# [6] = system: murine models of Parkinson Disease (PD); conditions: Lin et al., 2020; cited from earlier work
# eat-3(R289Q) animals [7] = assay: Thrashing assay in eat-3(R289Q) animals; assay type: in vivo, C. elegans; conditions: eat-3 R289Q worms; dose not given
# Text: FIGS. 4A-4C: Screening assays assessing the effects of mitophagy modulating agents on animal thrashing behavior in eat-3(R289Q) animals. The R289Q animal was created with CRISPR/Cas9 gene editing technology to model a known OPA1 human patient disease gene allele. FIG. 4A) Folinic Acid, lithium chloride (LiCl), Metformin, N-acetylcysteine (NAC), Nicotinamide, and Resveratrol rescue the eat-3 R289Q animals' thrashing behavior defect. FIG. 4B) Valproic Acid rescues the eat-3 R289Q animals' thrashing defect.
# Neuromuscular function/Thrashing assay was assessed by counting body bends of animals thrashing in liquid media at 7 days of adulthood. The higher number of thrashes, or body bends, per second, the healthier the neuromuscular function of a given animal.
smiles,measurement,setting,value
CC1=C(O)C(=O)C=C2C1=CC=C1[C@@]2(C)CC[C@@]2(C)[C@@H]3C[C@](C)(C(=O)O)CC[C@]3(C)CC[C@]12C [Tripterin],mitochondrial stress (hsp-6p::GFP),eat-3(R289Q) animals [1],rescues
same,"mitochondrial stress response, dose dependence","eat-3(R289Q) animals [1]; three biological replicates, dose range",reproducible dose-dependent reduction
same,"mitochondrial stress response, dose dependence","eat-3(R289Q) animals [1]; top hits at 12.5 μM, 25 μM, 50 μM and 100 μM",reproducibly rescue; also recorded: rescued the mitochondrial stress response in a dose-dependent manner
same,ATP production,[2]; 10 nM,increases (not significantly but as a trend)
same,ATP production,[2]; 50 nM,increases (not significantly but as a trend)
same,ATP production,[2]; concentration not stated,improved ATP production
same,ATP production,[3]; 10 nM,significantly increases
same,ATP production,[3]; 50 nM,significantly increases
same,ATP production,[3]; concentration not stated,improved ATP production
same,"mitochondrial stress response, dose dependence","uaDf5 animals [4]; 12.5 μM, 25 µM, 50 μM and 100 μM, uaDf5 strain #2",reproducibly rescue
same,mitochondrial stress (hsp-6p::GFP),"uaDf5 animals [4]; library screen at 25 μM, first experimental replicate",rescued
same,mitochondrial stress,"uaDf5 animals [4]; library tested twice at 25 μM, uaDf5 strain #2, 24-hour exposure",significantly rescue
same,replicates with rescue of mitochondrial stress response,uaDf5 animals [4]; six independent biological replicates,at least five different replicates
same,mutant mtDNA heteroplasmy,uaDf5 animals [5],appear to lower mutant mtDNA heteroplasmy
same,autophagy in the ROS/JNK signaling pathways,human osteosarcoma cells,activate autophagy
same,PINK-1 and DJ-1 (components of mitophagy),[6],upregulate
O=C(O)C(Cl)Cl [Dichloroacetate],mitochondrial stress,uaDf5 animals [4]; dose not given,strong trends in rescuing; also recorded: strong trends toward rescuing
C[C@@H]1C[C@H]2[C@@H]3CCC4=CC(=O)C=C[C@]4(C)[C@@]3(F)[C@@H](O)C[C@]2(C)[C@@]1(O)C(=O)CO [Dexamethasone],thrashing behavior defect,eat-3(R289Q) animals [7],significantly rescues; also recorded: modulate animal thrashing behavior
same,mitochondrial stress (hsp-6p::GFP),eat-3(R289Q) animals [1],rescues
Cc1cc2c(s1)Nc1ccccc1N=C2N1CCN(C)CC1 [Olanzapine],mitochondrial stress (hsp-6p::GFP),eat-3(R289Q) animals [1],rescues
